Measurements reported in PubChem BioAssay AID1671195 (Yale University, 2021)
This is a random part of about 22,000 reagents. Of all reagents, about 1,510 (6.9%) got an active call. 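Active includes knockdowns raising or lowering LDL uptake; positive z-scores mean more uptake, negative mean less.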 Unmarked entries are inactive. Reagent sequences are not shown.

Test: 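Regulators of LDL receptor activity judged by labelled LDL uptake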 (primary screen)
Cells: human Huh7 hepatoma cells
Reagents: siRNA pool against human genes, 18 nM
Duration: about 2 to 2.5 days of knockdown, then 8 h LDL uptake
Conditions: DiI-labelled LDL at 30 µg/ml for 8 h, in lipoprotein-deficient serum medium
Measured: 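Fluorescent LDL signal imaged in cells, scaled to the plate median, robust z-score for each replicate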
Reading the numbers: robust z-score: higher = more LDL uptake after knockdown
Call rule: 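Active when two or more replicates show a robust z-score above 2 or below -2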

gene symbol | PubChem SID | robust z-score, replicate 1 | robust z-score, replicate 2 | robust z-score, replicate 3
OR1C1 | SID442884494 | -1.74 (active) | -2.98 | -1.94
RAET1E | SID442887348 | 1.36 | 0.036 | 1.4
CXXC5 | SID442901819 | -0.818 | -1.68 | -0.396
TPCN2 | SID442894240 | 0.0989 | -0.251 | 0.0269
SLC9B2 | SID442897646 | -0.923 | -0.136 | -0.165
P4HTM | SID442904431 | -1.55 | -1.41 | -1.96
DNAH6 | SID442885789 | 1.46 | 1.35 | 1.3
DNAH6 | SID442893927 | -0.072 | 0.0912 | -0.0327
CHRM1 | SID442898621 | -0.51 | -0.555 | -0.495
STKLD1 | SID442898983 | -0.693 | -0.25 | -0.743
DDRGK1 | SID442901513 | -0.907 | -0.902 | -0.925
DPP6 | SID442901667 | -1.19 | -0.904 | -0.711
LOC391265 (retired record) | SID442884066 | 2.18 (active) | 1.94 | 1.94
BRINP2 | SID442900954 | -0.57 | -1.3 | -0.625
HERC5 | SID442895399 | -0.106 | 0.42 | -0.811
DUSP3 | SID442889964 | 0.222 | 0.377 | 0.843
HLA-DPB1 | SID442901056 | -1.31 | -0.365 | -0.86
GAN | SID442886195 | 0.825 | 1.16 | 1.72
PEAR1 | SID442884747 | -1.73 | -2.14 | -1.88
KRTAP20-1 | SID442890948 | 0.496 | 0.274 | 0.278
DRC7 | SID442883200 | 3.42 (active) | 4.81 | 3.68
CELF3 | SID442885189 | 1.46 | 1.41 | 2.02
GLRA4 | SID442887163 | 1.46 | 0.887 | 0.563
RBM38 | SID442900575 | -0.894 | -0.71 | -0.729
EFNA2 | SID442885183 | 1.22 | 1.95 | 1.73
MAP2K1 | SID442892502 | 1.25 | -0.154 | -0.614
ASTN1 | SID442892174 | -0.0637 | 0.948 | -0.284
TRPM4 | SID442894914 | 0.652 | -0.66 | -0.333
ARHGEF5 | SID442904479 | -1.36 | -1.3 | -2.33
LOC200624 (retired record) | SID442889978 | 0.718 | 0.0379 | 0.681
GLP2R | SID442891121 | 0.219 | 0.516 | 0.248
FRMPD2 | SID442892150 | -0.683 | 0.697 | 0.594
EID3 | SID442890842 | 0.438 | 0.624 | 0.0272
NFKBID | SID442893581 | 0.27 | 0.0151 | -0.186
MRPL11 | SID442891956 | 0.37 | 0.145 | 0.162
KLC1 | SID442887848 | 1.3 | 1.34 | -0.151
CAGE1 | SID442886992 | 0.659 | 1.3 | 1.07
ZKSCAN2 | SID442902668 | -0.972 | -1.26 | -1.14
LDAF1 | SID442893156 | 0.464 | 0.468 | -0.684
CCDC17 | SID442890712 | 0.911 | 0.463 | -0.237
LOC400870 (retired record) | SID442899676 | -0.698 | -0.653 | -0.608
CUX2 | SID442889479 | 0.743 | -0.105 | 1.02
NAA10 | SID442901465 | -0.682 | -1.18 | -0.852
PAFAH1B1 | SID442903019 | -1.26 | -1.13 | -1.2
SYT4 | SID442892375 | 0.168 | 0.139 | 0.218
ZNF772 | SID442892449 | 0.0132 | 0.328 | 0.156
LOC441681 (retired record) | SID442902826 | -1.17 | -0.847 | -1.45
CCDC92 | SID442887842 | 0.591 | 1.13 | 0.775
ANKRD13C | SID442896762 | -0.185 | -0.291 | -0.453
LDOC1 | SID442898018 | -1.08 | -0.666 | 0.392
YKT6 | SID442888382 | 0.787 | 0.137 | 1.27
LOC440273 (retired record) | SID442900869 | -0.857 | -0.897 | -0.705
CNNM3 | SID442889410 | 2.54 | -0.461 | -0.39
FFAR1 | SID442901018 | -0.683 | -0.682 | -1.15
SERPINA6 | SID442899857 | -1.46 | 0.064 | -0.638
CCN6 | SID442904134 | -1.15 | -0.947 | -2.42
PSMC4 | SID442883828 | 2.25 (active) | 2.56 | 1.97
KRT31 | SID442891119 | 1.17 | -0.514 | 0.332
ABLIM2 | SID442885771 | 1.02 | 1.78 | 1.34
EN2 | SID442898557 | -0.355 | -0.152 | -1.03
KRTAP4-11 | SID442893434 | 0.389 | 0.0385 | -0.275
ITPRID2 | SID442889525 | 0.501 | 0.469 | 0.665
LINC01940 | SID442886789 | 0.753 | 0.935 | 1.5
DNAI7 | SID442891863 | -0.0819 | 1.26 | -0.468
HNRNPAB | SID442900262 | -0.291 | -0.811 | -1.11
LARP7 | SID442894268 | 0.0162 | -0.78 | 0.631
SLC30A1 | SID442888931 | 0.662 | 0.346 | 0.907
LOC400852 (retired record) | SID442894358 | -0.0502 | -0.177 | 0.0618

Only “robust z-score, replicate 3” (9 entries from above):
CCDC92 [SID442887842] = 0.775
ANKRD13C [SID442896762] = -0.453
LDOC1 [SID442898018] = 0.392
YKT6 [SID442888382] = 1.27
LOC440273 (retired record) [SID442900869] = -0.705
CNNM3 [SID442889410] = -0.39
FFAR1 [SID442901018] = -1.15
SERPINA6 [SID442899857] = -0.638
CCN6 [SID442904134] = -2.42
